Measurements as given in the supplement of paper PMC10849652.
Some of the results follow.

Amino acid sequences for entries named in this document (tags omitted). A change or cut given only in a name is not applied to a line headed by its entry.
UniProt P29692: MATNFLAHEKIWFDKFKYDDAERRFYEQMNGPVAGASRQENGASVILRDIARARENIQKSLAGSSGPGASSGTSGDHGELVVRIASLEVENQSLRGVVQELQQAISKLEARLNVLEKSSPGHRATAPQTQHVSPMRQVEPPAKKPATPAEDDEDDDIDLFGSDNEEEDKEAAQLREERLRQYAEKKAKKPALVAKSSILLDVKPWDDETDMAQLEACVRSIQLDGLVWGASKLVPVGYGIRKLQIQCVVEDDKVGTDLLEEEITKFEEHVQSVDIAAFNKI
UniProt Q8NDI1: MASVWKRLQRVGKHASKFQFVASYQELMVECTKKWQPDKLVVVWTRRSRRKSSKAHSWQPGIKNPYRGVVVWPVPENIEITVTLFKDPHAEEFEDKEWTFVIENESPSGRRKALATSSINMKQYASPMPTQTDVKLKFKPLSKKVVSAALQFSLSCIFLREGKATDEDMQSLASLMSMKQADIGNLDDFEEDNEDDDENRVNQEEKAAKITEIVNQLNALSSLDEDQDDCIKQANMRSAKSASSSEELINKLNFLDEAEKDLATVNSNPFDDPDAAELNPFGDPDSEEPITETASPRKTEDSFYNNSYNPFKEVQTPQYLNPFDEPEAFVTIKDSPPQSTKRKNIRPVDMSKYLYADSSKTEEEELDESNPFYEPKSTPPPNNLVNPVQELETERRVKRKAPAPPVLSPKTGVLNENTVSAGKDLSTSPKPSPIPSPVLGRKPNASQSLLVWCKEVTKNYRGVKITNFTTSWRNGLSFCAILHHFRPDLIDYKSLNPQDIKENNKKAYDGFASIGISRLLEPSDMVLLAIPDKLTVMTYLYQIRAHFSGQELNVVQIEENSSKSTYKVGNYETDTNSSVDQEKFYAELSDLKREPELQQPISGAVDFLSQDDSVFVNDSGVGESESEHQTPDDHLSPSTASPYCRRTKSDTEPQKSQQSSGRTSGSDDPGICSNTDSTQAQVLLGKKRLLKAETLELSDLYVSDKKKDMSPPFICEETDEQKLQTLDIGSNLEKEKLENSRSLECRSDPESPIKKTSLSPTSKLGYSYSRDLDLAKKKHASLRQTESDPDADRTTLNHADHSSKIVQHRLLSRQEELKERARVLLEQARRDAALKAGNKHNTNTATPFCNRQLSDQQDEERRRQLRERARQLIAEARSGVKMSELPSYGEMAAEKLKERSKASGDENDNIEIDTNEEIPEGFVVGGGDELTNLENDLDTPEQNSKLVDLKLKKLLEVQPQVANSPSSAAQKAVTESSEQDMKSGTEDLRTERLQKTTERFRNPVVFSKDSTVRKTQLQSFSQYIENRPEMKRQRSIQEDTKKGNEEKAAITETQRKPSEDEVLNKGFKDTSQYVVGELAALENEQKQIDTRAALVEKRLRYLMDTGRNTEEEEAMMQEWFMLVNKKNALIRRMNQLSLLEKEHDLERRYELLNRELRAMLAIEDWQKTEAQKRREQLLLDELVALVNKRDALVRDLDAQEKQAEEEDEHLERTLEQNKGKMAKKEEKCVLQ
UniProt Q9H0I2: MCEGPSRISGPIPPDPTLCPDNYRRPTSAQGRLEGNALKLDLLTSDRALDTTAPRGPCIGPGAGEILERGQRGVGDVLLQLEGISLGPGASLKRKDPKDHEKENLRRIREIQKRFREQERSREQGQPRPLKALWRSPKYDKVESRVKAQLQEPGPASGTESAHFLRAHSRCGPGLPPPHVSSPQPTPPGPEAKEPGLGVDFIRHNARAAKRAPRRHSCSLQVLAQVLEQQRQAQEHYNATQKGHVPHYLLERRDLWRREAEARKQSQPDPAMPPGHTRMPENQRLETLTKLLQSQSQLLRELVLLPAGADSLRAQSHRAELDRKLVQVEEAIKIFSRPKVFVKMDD
UniProt Q96C92: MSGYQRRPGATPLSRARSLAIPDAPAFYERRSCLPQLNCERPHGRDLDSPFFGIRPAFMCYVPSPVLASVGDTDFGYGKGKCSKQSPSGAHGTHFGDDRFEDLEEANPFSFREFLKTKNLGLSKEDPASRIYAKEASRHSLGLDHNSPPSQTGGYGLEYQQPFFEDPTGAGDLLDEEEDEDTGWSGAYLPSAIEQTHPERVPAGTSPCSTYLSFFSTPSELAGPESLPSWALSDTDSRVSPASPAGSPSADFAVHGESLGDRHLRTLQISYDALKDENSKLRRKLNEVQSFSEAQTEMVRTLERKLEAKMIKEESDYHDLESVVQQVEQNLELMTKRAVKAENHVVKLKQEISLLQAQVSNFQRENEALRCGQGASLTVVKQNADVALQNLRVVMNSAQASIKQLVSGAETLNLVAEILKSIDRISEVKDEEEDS
UniProt Q8N5X7: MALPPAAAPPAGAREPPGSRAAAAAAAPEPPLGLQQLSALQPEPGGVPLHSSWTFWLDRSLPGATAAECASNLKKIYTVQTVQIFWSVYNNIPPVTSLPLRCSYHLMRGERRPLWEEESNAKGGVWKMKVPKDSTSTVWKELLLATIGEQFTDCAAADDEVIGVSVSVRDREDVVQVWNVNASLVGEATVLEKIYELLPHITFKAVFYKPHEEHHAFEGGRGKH
UniProt Q9Y227: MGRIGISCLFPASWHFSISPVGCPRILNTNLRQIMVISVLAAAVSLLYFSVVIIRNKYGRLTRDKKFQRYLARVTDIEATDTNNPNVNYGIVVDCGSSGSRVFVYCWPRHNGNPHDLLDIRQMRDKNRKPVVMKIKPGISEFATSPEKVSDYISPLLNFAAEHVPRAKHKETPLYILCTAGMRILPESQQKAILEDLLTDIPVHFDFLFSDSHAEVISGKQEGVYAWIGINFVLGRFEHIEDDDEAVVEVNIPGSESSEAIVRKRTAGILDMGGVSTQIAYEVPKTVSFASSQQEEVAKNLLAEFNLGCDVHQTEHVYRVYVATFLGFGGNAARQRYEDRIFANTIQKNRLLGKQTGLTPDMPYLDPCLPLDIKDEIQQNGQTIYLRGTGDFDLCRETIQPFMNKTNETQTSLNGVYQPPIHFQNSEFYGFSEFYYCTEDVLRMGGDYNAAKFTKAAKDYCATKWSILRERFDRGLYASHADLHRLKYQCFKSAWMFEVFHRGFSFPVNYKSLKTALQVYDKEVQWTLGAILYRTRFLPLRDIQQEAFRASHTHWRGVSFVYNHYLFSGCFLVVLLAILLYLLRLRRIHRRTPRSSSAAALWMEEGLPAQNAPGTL
UniProt P19419: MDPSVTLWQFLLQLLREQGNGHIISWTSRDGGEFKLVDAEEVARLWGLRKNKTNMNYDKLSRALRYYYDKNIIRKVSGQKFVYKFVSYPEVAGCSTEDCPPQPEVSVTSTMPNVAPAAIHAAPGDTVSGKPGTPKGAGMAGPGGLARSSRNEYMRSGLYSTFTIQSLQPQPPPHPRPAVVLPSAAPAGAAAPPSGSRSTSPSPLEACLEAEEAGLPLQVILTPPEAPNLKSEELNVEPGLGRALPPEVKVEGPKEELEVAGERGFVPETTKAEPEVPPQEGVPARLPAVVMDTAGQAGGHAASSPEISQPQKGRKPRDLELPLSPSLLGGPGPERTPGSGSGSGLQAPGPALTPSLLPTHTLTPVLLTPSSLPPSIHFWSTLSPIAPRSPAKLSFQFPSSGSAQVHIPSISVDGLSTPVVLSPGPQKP
UniProt Q14241: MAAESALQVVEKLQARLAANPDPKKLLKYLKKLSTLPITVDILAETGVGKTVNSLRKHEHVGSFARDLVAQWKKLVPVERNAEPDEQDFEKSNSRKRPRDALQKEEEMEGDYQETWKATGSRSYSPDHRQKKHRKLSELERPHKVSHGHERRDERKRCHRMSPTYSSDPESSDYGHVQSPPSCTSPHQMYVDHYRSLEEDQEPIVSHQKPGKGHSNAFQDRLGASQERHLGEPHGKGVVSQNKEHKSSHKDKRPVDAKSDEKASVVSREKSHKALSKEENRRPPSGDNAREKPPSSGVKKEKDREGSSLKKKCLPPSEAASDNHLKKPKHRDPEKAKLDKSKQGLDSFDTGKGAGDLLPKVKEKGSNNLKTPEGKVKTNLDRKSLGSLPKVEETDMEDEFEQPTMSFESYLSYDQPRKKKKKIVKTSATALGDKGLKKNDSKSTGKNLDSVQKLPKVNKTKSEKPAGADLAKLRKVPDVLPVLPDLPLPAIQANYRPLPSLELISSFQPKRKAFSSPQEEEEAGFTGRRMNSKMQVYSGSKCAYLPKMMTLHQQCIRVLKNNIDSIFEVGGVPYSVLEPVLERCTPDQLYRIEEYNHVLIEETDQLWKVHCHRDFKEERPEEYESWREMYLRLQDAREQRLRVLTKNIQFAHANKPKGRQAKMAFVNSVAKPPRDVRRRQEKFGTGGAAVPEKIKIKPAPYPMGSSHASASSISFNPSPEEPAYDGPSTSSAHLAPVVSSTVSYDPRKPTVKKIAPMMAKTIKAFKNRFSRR
UniProt Q9H4G0, whole entry, looked up: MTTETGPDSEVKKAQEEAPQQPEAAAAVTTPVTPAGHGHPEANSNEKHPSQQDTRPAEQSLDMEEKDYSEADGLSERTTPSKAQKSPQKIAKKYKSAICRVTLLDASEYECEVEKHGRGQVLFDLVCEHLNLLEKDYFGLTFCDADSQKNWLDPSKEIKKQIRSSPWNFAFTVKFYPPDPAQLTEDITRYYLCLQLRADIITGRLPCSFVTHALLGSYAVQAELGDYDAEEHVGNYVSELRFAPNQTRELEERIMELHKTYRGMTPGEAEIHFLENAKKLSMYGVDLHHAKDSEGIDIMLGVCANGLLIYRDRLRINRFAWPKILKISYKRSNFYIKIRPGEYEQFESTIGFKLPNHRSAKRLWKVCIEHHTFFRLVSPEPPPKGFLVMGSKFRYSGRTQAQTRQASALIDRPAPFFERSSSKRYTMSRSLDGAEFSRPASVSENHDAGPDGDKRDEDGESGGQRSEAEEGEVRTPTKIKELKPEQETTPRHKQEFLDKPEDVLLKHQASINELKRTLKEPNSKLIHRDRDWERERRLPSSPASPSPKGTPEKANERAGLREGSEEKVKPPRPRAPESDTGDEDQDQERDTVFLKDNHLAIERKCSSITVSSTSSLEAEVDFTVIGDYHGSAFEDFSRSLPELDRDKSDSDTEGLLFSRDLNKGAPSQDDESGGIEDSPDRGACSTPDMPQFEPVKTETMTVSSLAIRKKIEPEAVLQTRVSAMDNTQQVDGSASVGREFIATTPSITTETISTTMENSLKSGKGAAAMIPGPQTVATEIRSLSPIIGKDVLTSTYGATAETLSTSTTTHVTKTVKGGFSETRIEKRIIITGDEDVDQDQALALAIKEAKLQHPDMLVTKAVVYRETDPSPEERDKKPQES
UniProt P0DPD8: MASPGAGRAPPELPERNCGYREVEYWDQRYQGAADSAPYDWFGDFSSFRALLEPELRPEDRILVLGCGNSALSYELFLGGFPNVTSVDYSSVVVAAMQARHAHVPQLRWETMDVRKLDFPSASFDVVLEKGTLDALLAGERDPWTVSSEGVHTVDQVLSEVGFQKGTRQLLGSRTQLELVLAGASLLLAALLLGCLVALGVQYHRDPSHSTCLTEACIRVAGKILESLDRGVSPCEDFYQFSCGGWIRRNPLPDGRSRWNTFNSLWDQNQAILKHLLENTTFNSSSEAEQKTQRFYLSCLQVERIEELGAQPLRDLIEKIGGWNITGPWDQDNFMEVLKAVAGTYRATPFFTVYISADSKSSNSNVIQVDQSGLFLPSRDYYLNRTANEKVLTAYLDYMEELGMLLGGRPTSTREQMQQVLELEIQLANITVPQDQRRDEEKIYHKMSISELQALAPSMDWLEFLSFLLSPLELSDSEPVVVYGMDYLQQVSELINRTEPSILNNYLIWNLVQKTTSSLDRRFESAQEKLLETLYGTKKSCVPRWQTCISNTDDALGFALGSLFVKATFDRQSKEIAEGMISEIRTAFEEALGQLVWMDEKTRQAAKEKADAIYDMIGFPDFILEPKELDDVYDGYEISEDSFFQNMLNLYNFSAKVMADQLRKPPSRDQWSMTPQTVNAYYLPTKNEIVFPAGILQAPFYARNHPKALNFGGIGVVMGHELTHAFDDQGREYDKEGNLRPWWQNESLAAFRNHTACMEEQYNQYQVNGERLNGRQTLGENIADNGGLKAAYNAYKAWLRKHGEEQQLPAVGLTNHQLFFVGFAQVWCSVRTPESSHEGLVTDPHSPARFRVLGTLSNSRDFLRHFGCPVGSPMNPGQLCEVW
UniProt Q8WVE0: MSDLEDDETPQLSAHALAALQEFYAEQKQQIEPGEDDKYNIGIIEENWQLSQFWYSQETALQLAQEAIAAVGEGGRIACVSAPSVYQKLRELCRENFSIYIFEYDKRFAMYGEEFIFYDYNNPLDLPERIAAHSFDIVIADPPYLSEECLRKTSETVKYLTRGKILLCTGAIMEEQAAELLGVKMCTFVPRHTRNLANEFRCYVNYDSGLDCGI

Key:
Assay in all cases: log2 fold change, soluble protein after heating vs DMSO (PISA); higher = thermal stabilisation; K562 cells, 10 uM, 30 min; active = over 0.2 and 3.5 SD of the protein, either way, in both replicates (recomputed)
[1] = compound: NC1(c2ccc(-c3nc4ccn5c(=O)[nH]nc5c4cc3-c3ccccc3)cc2)CCC1
Method in brief: (§1)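 Soluble protein was quantified by TMTpro 16plex LC-MS/MS after channel sums were equalised. It was obtained as the supernatant after 21,000xg for 90 min from pooled aliquots of K562 cells (2×10^6 cells/mL, 10 μM compound, 30 min) heated for 3 min across 48°C-58°C and extracted in PBS with 0.5% NP-40 at 4°C. Thermal stability values are relative to control samples and come from duplicates. They are given as log2 fold changes.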

[2] = compound: O=C(O)c1ccc2c(c1)nc(Nc1cccc(Cl)c1)c1ccncc12 [silmitasertib]
Method in brief: as §1

[3] = compound: NC(=O)c1cnc(N[C@@H]2CCCC[C@@H]2N)nc1Nc1cccc(-n2nccn2)c1
Method in brief: as §1

[4] = compound: O=C(CCCCCCC(=O)Nc1ccccc1)NO [vorinostat]
Method in brief: as §1

[5] = compound: O=C(CCCCCCNC(=O)c1cnc(N(c2ccccc2)c2ccccc2Cl)nc1)NO [citarinostat]
Method in brief: as §1

[6] = compound: c1cc(OCCN2CCCCC2)cc(-c2n[nH]c3ccc(-c4nnc[nH]4)cc23)c1
Method in brief: as §1

[7] = compound: NCC(=O)Nc1ccc(-n2nc(C(F)(F)F)cc2-c2ccc3c(ccc4ccccc43)c2)cc1
Method in brief: as §1

[8] = compound: c1cn2cc(-c3ccc4cn[nH]c4c3)nc(Nc3ccc(N4CCOCC4)cc3)c2n1 [entospletinib]
Method in brief: as §1

[9] = compound: NC(=O)Nc1cc(-c2cccc(F)c2)sc1C(=O)N[C@H]1CCCNC1
Method in brief: as §1

[10] = compound: Nc1ccccc1NC(=O)c1ccc(CNC(=O)OCc2cccnc2)cc1 [entinostat]
Method in brief: as §1

[11] = compound: O=C1NC(=O)C(c2cnc3ccccn23)=C1c1cn2c3c(cc(F)cc13)CN(C(=O)N1CCCCC1)CC2
Method in brief: as §1

Measured: log2 fold change

EEF1D isoform 3 (UniProt P29692)
inactive: [1] 0.2 | [2] -0.401

EHBP1 (UniProt Q8NDI1)
inactive: [3] -0.092 | [1] 0.017 | [4] -0.034 | [5] -0.009 | [2] 0.087 | [6] -0.14

ENKD1 (UniProt Q9H0I2)
inactive: [7] -0.12 | [4] 0.11 | [5] -0.109 | [6] -0.06 | [8] -0.013

ENTR1 (UniProt Q96C92)
inactive: [7] -0.284

EIF4E3 (UniProt Q8N5X7)
inactive: [5] -0.006 | [6] -0.044 | [8] 0.09

ENTPD4 (UniProt Q9Y227)
inactive: [9] 0.04 | [10] -0.025 | [4] -0.138 | [5] -0.247 | [11] -0.059 | [6] -0.1 | [8] -0.244

ELK1 (UniProt P19419)
inactive: [4] -0.06

ELOA (UniProt Q14241)
inactive: [1] 0.187 | [4] -0.105 | [5] -0.066 | [2] -0.006 | [11] -0.292 | [6] -0.01 | [8] -0.016

Fetched one by one from the entries so far (two):
EEF1D isoform 3 (UniProt P29692)
inactive: [1] 0.2 | [2] -0.401

EIF4E3 (UniProt Q8N5X7)
inactive: [5] -0.006 | [6] -0.044 | [8] 0.09

(listing goes on)

ENPP2 isoform 2 (UniProt Q13822)
inactive: [11] 0.095

EPB41L1 (UniProt Q9H4G0)
inactive: [3] 0.156 | [1] -0.017 | [7] 0.118 | [4] -0.007 | [5] -0.027 | [2] 0.022 | [11] 0.018 | [6] -0.132 | [8] 0.028

EEF1AKMT4-ECE2 (UniProt P0DPD8)
inactive: [9] -0.058 | [10] 0.251

EEF1AKMT1 (UniProt Q8WVE0)
inactive: [11] 0.07
